These are yes or no findings as the source states them, for the method shown. In cells and extracts the contact can be indirect.
Molecular target: F1 deletion mutant of Kindlin-2 (lentiviral, pLVX-K2ΔF1-Hyg) (UniProt Q96AC1)
Test: co-IP; lysates of primary PCCs from KPC;K2 WT or KPC;K2 cKO mice infected with lentivirus encoding K2 WT, K2 ΔF1 or empty vector; anti-Kindlin-2 antibody; immunoblot

Protein sequences, listed by entry. Tags and fused reporters are not part of them. Lines headed by an entry give the natural chain unless they say otherwise; changes in a name come on top.
UniProt Q96AC1: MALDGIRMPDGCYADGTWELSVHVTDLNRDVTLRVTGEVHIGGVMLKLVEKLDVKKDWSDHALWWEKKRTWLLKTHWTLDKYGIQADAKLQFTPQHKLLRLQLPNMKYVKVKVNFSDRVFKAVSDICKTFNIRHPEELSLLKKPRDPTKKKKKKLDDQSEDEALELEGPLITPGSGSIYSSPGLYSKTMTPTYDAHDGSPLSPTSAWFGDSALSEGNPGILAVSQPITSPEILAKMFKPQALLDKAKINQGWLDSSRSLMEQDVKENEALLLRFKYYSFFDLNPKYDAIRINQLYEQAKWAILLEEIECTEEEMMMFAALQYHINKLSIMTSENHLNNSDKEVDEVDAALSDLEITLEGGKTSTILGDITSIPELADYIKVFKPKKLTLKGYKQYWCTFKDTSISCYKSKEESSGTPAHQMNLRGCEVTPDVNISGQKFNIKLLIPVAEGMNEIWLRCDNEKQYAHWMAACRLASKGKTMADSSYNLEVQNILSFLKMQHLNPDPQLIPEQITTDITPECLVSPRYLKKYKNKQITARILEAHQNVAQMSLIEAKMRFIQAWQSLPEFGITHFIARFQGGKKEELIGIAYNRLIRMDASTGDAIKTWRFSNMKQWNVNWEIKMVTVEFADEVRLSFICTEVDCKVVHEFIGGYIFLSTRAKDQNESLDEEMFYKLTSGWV
UniProt Q62167: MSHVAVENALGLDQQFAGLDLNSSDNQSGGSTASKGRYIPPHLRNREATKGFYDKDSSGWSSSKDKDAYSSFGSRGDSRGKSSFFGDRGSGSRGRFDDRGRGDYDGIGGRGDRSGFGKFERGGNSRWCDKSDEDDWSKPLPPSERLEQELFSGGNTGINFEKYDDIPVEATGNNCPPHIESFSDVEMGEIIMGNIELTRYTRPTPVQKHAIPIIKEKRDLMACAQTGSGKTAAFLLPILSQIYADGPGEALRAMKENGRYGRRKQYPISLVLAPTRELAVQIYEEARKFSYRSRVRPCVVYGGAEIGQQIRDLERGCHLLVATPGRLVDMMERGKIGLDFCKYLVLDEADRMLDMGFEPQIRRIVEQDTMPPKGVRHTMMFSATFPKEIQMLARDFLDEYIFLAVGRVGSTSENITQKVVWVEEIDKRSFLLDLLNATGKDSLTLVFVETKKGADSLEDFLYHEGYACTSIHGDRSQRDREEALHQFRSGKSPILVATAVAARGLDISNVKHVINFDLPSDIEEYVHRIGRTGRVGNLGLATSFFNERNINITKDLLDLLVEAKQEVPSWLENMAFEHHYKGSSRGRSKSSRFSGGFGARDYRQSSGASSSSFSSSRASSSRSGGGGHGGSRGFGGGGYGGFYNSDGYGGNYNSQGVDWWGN

binding: no binding
Substance: DDX3X (endogenous, mouse primary pancreatic cancer cells) (from UniProt Q62167 1-662)

Source: paper PMC10465218
